# Data as given in the supplement of paper PMC10849652.
# Chains of the proteins cited; added tags and fusions are not shown. Lines headed by an entry give the natural chain unless they say otherwise; changes in a name come on top.
# UniProt Q06546: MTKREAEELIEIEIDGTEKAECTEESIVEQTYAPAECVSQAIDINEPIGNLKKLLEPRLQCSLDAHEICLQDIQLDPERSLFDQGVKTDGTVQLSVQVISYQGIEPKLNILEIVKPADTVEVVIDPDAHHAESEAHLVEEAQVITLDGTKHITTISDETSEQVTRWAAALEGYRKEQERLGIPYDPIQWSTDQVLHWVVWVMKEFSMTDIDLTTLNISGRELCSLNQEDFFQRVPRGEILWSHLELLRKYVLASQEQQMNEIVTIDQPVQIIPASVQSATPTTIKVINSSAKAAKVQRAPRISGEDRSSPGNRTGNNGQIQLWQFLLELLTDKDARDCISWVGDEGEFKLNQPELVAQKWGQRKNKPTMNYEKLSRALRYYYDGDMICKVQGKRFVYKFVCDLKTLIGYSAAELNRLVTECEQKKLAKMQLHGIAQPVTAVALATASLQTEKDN
# UniProt Q8IXK2: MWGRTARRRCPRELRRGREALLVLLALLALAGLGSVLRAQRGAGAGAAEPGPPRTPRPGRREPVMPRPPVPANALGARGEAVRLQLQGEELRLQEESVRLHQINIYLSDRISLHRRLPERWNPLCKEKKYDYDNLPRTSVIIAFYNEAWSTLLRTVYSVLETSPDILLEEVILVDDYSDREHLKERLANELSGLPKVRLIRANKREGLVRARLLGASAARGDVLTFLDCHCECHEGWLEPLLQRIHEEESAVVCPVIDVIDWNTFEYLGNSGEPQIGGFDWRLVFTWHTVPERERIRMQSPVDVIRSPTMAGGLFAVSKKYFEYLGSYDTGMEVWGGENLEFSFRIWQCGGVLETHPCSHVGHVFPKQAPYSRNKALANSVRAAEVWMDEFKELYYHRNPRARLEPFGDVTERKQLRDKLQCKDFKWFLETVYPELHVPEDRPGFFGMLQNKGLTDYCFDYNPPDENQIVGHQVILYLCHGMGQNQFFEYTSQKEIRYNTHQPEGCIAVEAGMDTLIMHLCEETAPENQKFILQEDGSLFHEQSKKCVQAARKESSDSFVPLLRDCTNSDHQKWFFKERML
# UniProt P23434: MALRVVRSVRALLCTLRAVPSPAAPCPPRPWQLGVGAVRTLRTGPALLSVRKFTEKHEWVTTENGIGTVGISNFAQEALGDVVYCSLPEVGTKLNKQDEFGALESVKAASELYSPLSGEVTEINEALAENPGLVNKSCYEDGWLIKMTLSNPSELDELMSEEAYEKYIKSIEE
# UniProt P0CL80: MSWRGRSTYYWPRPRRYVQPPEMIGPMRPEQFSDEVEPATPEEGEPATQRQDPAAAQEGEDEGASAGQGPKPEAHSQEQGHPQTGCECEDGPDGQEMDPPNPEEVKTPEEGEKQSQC
# UniProt Q92538, whole entry, looked up: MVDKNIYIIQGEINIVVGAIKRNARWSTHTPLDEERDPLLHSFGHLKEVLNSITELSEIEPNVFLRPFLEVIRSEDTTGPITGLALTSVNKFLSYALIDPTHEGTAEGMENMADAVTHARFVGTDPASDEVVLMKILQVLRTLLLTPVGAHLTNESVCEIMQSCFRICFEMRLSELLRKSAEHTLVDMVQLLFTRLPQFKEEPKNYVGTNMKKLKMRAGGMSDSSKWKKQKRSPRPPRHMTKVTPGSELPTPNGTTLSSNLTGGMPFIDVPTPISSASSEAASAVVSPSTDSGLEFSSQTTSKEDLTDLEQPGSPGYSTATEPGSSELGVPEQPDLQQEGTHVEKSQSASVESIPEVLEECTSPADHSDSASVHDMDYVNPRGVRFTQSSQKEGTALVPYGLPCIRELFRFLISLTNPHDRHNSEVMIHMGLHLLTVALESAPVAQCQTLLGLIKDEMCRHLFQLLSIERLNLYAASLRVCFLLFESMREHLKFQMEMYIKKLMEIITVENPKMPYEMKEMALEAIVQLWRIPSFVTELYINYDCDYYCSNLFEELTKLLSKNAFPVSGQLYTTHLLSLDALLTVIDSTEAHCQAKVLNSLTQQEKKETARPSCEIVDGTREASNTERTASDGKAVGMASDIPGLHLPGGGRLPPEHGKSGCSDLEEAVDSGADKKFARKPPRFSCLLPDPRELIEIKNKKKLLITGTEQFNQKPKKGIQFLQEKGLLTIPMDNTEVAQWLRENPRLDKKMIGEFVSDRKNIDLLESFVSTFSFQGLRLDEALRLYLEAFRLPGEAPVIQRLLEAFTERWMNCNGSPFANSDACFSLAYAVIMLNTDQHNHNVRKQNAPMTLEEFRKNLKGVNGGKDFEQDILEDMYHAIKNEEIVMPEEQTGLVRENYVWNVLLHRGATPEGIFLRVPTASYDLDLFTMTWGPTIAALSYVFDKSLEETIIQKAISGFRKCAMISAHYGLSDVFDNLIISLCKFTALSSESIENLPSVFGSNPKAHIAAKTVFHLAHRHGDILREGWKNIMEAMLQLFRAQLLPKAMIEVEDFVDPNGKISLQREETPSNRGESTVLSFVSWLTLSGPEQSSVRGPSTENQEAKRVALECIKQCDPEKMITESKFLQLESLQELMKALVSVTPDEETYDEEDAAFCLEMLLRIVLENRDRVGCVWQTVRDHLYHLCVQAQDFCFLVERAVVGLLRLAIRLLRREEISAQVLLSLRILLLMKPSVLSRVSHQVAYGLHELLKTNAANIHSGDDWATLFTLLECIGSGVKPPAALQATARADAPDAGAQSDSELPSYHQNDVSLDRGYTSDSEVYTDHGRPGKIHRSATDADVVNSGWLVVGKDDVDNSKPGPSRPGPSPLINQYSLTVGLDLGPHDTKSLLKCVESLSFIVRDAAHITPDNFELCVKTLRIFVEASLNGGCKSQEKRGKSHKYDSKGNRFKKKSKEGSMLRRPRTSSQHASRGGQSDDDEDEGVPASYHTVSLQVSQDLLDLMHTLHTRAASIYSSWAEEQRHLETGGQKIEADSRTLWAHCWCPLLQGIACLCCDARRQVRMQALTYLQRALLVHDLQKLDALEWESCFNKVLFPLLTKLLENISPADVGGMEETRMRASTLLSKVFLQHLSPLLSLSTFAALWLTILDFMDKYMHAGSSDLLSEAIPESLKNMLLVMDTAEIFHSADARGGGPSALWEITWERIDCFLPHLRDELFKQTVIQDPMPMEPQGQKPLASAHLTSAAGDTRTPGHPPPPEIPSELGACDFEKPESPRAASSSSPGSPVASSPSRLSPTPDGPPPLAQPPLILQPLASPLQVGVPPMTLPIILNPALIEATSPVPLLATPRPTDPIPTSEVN
# UniProt P60520, whole entry, looked up: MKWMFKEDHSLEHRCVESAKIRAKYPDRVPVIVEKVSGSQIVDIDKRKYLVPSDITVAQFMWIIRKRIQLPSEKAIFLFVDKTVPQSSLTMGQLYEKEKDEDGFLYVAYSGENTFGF
# UniProt P48507: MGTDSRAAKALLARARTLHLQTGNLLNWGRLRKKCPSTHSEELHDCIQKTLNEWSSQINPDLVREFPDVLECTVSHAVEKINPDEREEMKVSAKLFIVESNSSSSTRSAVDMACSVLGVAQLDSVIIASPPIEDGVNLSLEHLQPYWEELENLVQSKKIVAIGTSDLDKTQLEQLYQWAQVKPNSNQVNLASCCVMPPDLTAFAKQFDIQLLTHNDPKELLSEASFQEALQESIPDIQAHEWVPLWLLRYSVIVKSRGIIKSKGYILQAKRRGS
# UniProt Q8N2G8: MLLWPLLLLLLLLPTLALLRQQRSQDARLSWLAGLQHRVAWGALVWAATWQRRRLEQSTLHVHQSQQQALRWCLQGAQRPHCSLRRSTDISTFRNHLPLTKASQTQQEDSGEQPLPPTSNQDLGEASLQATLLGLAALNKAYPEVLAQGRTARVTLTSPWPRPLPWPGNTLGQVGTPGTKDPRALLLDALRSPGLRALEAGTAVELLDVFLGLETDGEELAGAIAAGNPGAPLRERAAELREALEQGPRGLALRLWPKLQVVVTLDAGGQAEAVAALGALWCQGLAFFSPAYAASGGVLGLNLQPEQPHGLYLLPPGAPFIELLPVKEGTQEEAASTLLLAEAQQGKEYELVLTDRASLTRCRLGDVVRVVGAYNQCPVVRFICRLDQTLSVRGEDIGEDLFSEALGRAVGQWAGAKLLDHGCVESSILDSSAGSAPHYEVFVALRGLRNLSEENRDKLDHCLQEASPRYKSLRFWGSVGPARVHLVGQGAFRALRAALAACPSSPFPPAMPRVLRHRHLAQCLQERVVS
# UniProt Q8WXD5: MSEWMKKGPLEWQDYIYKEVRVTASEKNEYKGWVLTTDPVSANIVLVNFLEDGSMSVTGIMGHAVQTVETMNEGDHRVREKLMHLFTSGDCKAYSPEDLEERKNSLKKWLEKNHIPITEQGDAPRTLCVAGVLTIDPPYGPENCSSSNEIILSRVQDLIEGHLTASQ
# UniProt Q9NZC3: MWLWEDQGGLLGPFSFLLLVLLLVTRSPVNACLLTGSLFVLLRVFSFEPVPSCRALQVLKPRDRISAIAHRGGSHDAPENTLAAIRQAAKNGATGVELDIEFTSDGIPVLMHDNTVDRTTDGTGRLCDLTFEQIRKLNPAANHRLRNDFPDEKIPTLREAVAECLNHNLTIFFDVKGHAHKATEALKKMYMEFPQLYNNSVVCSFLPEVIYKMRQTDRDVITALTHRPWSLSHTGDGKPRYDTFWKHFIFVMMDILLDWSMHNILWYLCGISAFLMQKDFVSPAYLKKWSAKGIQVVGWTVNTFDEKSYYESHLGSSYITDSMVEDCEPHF
# UniProt O15117, whole entry, looked up: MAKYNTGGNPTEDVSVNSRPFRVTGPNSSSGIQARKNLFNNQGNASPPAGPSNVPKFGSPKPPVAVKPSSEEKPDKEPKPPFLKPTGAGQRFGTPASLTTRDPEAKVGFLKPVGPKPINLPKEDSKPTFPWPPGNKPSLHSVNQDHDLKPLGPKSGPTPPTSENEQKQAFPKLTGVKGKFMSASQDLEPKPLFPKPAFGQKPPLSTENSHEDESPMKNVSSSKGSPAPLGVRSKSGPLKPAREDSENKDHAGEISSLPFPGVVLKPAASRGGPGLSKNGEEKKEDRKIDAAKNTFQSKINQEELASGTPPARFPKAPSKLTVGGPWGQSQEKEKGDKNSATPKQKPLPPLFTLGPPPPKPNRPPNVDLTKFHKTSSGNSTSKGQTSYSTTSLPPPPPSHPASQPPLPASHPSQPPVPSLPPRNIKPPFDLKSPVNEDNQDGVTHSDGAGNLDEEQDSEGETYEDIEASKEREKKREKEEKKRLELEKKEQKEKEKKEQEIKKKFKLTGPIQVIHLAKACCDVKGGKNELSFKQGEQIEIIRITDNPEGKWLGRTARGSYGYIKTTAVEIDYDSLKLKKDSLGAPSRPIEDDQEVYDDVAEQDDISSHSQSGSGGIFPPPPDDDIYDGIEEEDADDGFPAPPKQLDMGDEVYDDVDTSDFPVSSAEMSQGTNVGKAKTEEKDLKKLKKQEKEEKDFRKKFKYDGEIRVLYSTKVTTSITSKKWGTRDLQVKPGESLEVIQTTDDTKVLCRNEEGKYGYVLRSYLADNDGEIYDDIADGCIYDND
# UniProt P51570: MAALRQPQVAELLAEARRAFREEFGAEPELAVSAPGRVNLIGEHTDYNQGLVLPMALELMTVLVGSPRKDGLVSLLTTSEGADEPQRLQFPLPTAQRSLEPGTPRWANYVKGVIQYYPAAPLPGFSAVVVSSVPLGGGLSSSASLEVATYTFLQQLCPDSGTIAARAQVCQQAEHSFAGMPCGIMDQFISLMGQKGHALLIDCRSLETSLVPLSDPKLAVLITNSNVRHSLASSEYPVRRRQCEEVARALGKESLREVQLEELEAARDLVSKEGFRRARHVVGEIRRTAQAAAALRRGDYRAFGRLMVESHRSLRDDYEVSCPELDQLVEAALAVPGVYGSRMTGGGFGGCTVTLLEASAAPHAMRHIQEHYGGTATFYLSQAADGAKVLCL
# Some of the results follow. Residues, ends and D or L forms follow the SMILES beside them. *: point of attachment. Cbz = O=C(OCc1ccccc1)*
# Columns and labels:
# Test in all cases: log2 fold change, soluble protein after heating vs DMSO (PISA); higher = thermal stabilisation; K562 cells, 10 uM, 30 min; active = over 0.2 and 3.5 SD of the protein, either way, in both replicates (recomputed)
# erlotinib = compound: C#Cc1cccc(Nc2ncnc3cc(OCCOC)c(OCCOC)cc23)c1 [erlotinib]
# In short: (§1)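 Quantification of soluble protein used TMTpro 16plex LC-MS/MS, with channel sums equalised. Samples were the supernatant after 21,000xg for 90 min of pooled aliquots from K562 cells (2×10^6 cells/mL) treated with 10 μM compound for 30 min, heated for 3 min over 48°C-58°C, and extracted in PBS with 0.5% NP-40 at 4°C. Values, from duplicates, describe thermal stability against control samples on a log2 fold-change scale.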
# [1] = compound: C/C(=N\NC(=O)C1=CC(=CC=C1)S(=O)(=O)N2CCOCC2)/C3=C(C=CC(=C3)Cl)O
# In short: as §1
# [2] = compound: C1=CC(=C(C=C1Cl)C2=NC3=NC=CN=C3C(=N2)NC4=CC=NC=C4)F
# In short: as §1
# [3] = compound: C1=CC(=CC=C1C2=NC3=C(N2)C=C(C=C3)C(=O)N)OC4=CC=C(C=C4)Cl
# In short: as §1
# [4] = compound: C1=CC2=C(C=CC(=C2)/C=C\3/C(=O)NC(=NCC4=CC=CS4)S3)N=C1
# In short: as §1
# [5] = compound: C1=CC2=NC=CN=C2C=C1/C=C/3\C(=O)NC(=O)S3
# In short: as §1
# [6] = compound: C1=CC=C(C=C1)C2=NC(=C(N2)C3=CC=NC=C3)C4=CC(=C(C=C4)Cl)O
# In short: as §1
# [7] = compound: C1=CC=C2C(=C1)C3=NNC4=CC=CC(=C43)C2=O
# In short: as §1
# [8] = compound: C1CCN(C1)C(=O)NC2=CC=CC(=C2)NC3=NC=C(C(=N3)NCCC4=CN=CN4)Br
# In short: as §1
# [9] = compound: C1CN(CCC1(CC2=CC=C(C=C2)Cl)N)C3=NC=NC4=C3C=CN4
# In short: as §1
# IRAK-1-4 Inhibitor I = compound: C1COCCN1CCN2C3=CC=CC=C3N=C2NC(=O)C4=CC(=CC=C4)[N+](=O)[O-] [IRAK-1-4 Inhibitor I]
# In short: as §1
# ibrutinib = compound: C=CC(=O)N1CCC[C@@H](n2nc(-c3ccc(Oc4ccccc4)cc3)c3c(N)ncnc32)C1 [ibrutinib]
# In short: as §1
# [10] = compound: CC(=O)c1cnc2ccc(-c3cc(Cl)c(O)c(Cl)c3)nc2c1N[C@H]1CC[C@H](CN(C)C)CC1
# In short: as §1
# ralimetinib = compound: CC(C)(C)Cn1c(N)nc2ccc(-c3[nH]c(C(C)(C)C)nc3-c3ccc(F)cc3)nc21 [ralimetinib]
# In short: as §1
# [11] = compound: CC(C)(O)CC(=O)NCCn1ccc2ncnc(Nc3ccc(Oc4cccc(C(F)(F)F)c4)c(Cl)c3)c21
# In short: as §1
# [12] = compound: CC(C)C1=C2N=C(C=C(N2N=C1)NCC3=CC=CC=C3)NCCCCCCN
# In short: as §1
# [13] = compound: CC(C)C[C@@H](C=O)NC(=O)[C@H](CC(C)C)NC(=O)[C@H](CC(C)C)NC(=O)OCc1ccccc1
# In short: as §1
# pinometostat = compound: CC(C)N(C[C@H]1O[C@@H](n2cnc3c(N)ncnc32)[C@H](O)[C@@H]1O)[C@H]1C[C@@H](CCc2nc3cc(C(C)(C)C)ccc3[nH]2)C1 [pinometostat]
# In short: as §1
# [14] = compound: CC1=C(C(CC(=O)N1)C2=CC=C(C=C2)C(F)(F)F)C(=O)NC3=C(C=C4C(=C3)C=NN4)F
# In short: as §1
# [15] = compound: CC1=C(C2=C(C=C1)C(=O)C3=CC=CC=C3N2CCCN)C
# In short: as §1
Target,log2 fold change (erlotinib),log2 fold change [1],log2 fold change [2],log2 fold change [3],log2 fold change [4],log2 fold change [5],log2 fold change [6],log2 fold change [7],log2 fold change [8],log2 fold change [9],log2 fold change (IRAK-1-4 Inhibitor I),log2 fold change (ibrutinib),log2 fold change [10],log2 fold change (ralimetinib),log2 fold change [11],log2 fold change [12],log2 fold change [13],log2 fold change (pinometostat),log2 fold change [14],log2 fold change [15]
FXR1 (UniProt P51114),inactive: 0.024,inactive: -0.051,inactive: -0.572,inactive: -0.068,inactive: 0.372,inactive: 0.013,inactive: -0.112,inactive: 0.02,inactive: -0.021,inactive: -0.06,inactive: -0.073,inactive: 0.028,inactive: -0.033,inactive: 0.167,inactive: 0.118,inactive: -0.243,inactive: 0.233,inactive: 0.303,inactive: 0.018,inactive: 0.024
GABPA (UniProt Q06546),inactive: 0.07,inactive: 0.121,inactive: 0.014,inactive: -0.042,inactive: 0.083,inactive: -0.055,inactive: 0.049,inactive: 0.025,inactive: -0.028,inactive: 0.011,inactive: -0.004,inactive: -0.014,inactive: -0.054,inactive: 0.001,inactive: -0.107,inactive: -0.243,inactive: -0.013,inactive: -0.007,–,inactive: -0.175
GALNT12 (UniProt Q8IXK2),inactive: -0.037,inactive: 0.03,inactive: -0.032,inactive: 0.025,inactive: -0.005,inactive: 0.011,inactive: -0.039,inactive: -0.023,inactive: -0.035,inactive: -0.104,inactive: 0.046,inactive: 0.077,inactive: -0.074,inactive: 0.002,inactive: 0.005,inactive: -0.112,inactive: 0.045,inactive: 0.023,–,inactive: -0.254
GCSH (UniProt P23434),inactive: -0.072,inactive: -0.023,inactive: 0.253,inactive: 0.061,inactive: -0.036,inactive: 0.067,inactive: -0.038,inactive: -0.007,inactive: -0.017,inactive: -0.025,inactive: 0.027,inactive: -0.002,inactive: 0.011,inactive: -0.026,inactive: -0.031,inactive: -0.025,inactive: -0.049,inactive: -0.021,–,inactive: 0.03
GAGE12F (UniProt P0CL80),inactive: -0.056,inactive: -0.061,inactive: 0.017,inactive: -0.035,inactive: 0.08,inactive: 0.025,inactive: -0.007,inactive: 0.011,inactive: -0.088,inactive: 0.052,inactive: 0.045,inactive: 0.025,inactive: 0.037,inactive: -0.038,inactive: 0.02,inactive: 0.015,inactive: 0.019,inactive: -0.06,–,inactive: 0.128
FNTB (UniProt P49356),active: 0.488,inactive: 0.028,inactive: 0.203,inactive: 0.028,inactive: 0.208,inactive: -0.024,inactive: 0.091,inactive: 0.107,inactive: 0.326,inactive: 0.065,inactive: 0.017,inactive: 0.309,inactive: -0.028,inactive: -0.016,inactive: -0.025,inactive: 0.074,inactive: -0.033,inactive: -0.003,–,inactive: -0.087
GBF1 (UniProt Q92538),inactive: -0.012,inactive: 0.077,inactive: -0.049,inactive: -0.022,inactive: 0.075,inactive: 0.028,inactive: -0.036,inactive: 0.033,inactive: -0.026,inactive: -0.052,inactive: -0.033,inactive: -0.049,inactive: -0.044,inactive: 0.017,inactive: -0.05,inactive: -0.088,inactive: 0.015,inactive: 0.115,–,inactive: 0.007
GABARAPL2 (UniProt P60520),inactive: 0.065,inactive: 0.013,inactive: 0.021,inactive: -0.02,inactive: 0.072,inactive: 0.016,inactive: 0.077,inactive: 0.008,inactive: -0.027,inactive: -0.021,inactive: 0.107,inactive: -0.018,inactive: -0.076,inactive: 0.008,inactive: -0.028,active: -0.269,inactive: -0.007,inactive: -0.103,–,inactive: -0.015
GALC (UniProt P54803),inactive: -0.023,inactive: -0.002,inactive: -0.051,inactive: 0.041,inactive: 0.009,inactive: 0.028,inactive: -0.017,inactive: -0.011,inactive: -0.032,inactive: 0.08,inactive: 0.053,inactive: 0.017,inactive: 0.016,inactive: -0.012,inactive: 0.041,inactive: -0.122,inactive: 0.05,inactive: 0.067,–,inactive: -0.003
GCLM (UniProt P48507),inactive: -0.054,inactive: 0.199,inactive: 0.014,inactive: -0.019,inactive: -0.078,inactive: 0.088,inactive: -0.006,inactive: 0.064,inactive: -0.008,inactive: -0.035,inactive: -0.065,inactive: -0.038,inactive: 0.106,inactive: 0.002,inactive: -0.104,inactive: -0.034,inactive: 0.02,inactive: 0.049,–,inactive: -0.023
GHDC (UniProt Q8N2G8),inactive: 0.062,inactive: 0.046,inactive: -0.002,inactive: 0.013,inactive: 0.011,inactive: 0.003,inactive: -0.021,inactive: -0.008,inactive: -0.009,inactive: 0.06,inactive: 0.014,inactive: 0.015,inactive: -0.036,inactive: 0.007,inactive: 0.037,active: -0.277,inactive: 0.018,inactive: -0.015,–,inactive: -0.011
GEMIN6 (UniProt Q8WXD5),inactive: -0.002,inactive: 0.02,inactive: -0.042,inactive: 0.027,inactive: -0.022,inactive: 0.065,inactive: 0.125,inactive: -0.012,inactive: -0.002,inactive: -0.045,inactive: 0.035,inactive: 0.021,inactive: 0.016,inactive: 0.188,inactive: -0.03,inactive: -0.012,inactive: -0.226,inactive: 0.046,–,inactive: 0.03
GDE1 (UniProt Q9NZC3),inactive: 0.014,inactive: 0.065,inactive: 0.055,inactive: 0.019,inactive: -0.047,inactive: 0.05,inactive: -0.029,inactive: -0.023,inactive: 0.003,inactive: 0.13,inactive: -0.052,inactive: 0.031,inactive: -0.009,inactive: 0.02,inactive: -0.033,inactive: 0.067,inactive: 0.049,inactive: 0.054,–,inactive: 0.266
FYB1 isoform 3 (UniProt O15117),inactive: 0.019,inactive: 0.032,inactive: -0.02,inactive: -0.01,inactive: 0.057,inactive: 0.006,inactive: 0.014,inactive: -0.08,inactive: -0.041,inactive: 0,inactive: 0.009,inactive: -0.012,inactive: -0.193,inactive: 0.308,inactive: 0.06,inactive: -0.069,inactive: 0.226,inactive: 0.002,–,inactive: 0.129
GALK1 isoform 2 (UniProt P51570),inactive: 0.002,inactive: 0.082,inactive: 0.158,inactive: -0.023,inactive: -0.08,inactive: 0.016,inactive: 0.07,inactive: 0.055,inactive: -0.094,inactive: 0.076,inactive: 0.046,inactive: 0.024,inactive: 0.018,inactive: 0.081,inactive: -0.081,inactive: -0.004,inactive: -0.121,inactive: 0.041,–,inactive: -0.018

# Single values from above:
# For log2 fold change (erlotinib), GDE1 (UniProt Q9NZC3) is entered as inactive: 0.014
# For log2 fold change [10], GALC (UniProt P54803) is entered as inactive: 0.016
